Laboratory results from the supplement of paper PMC10849652.
The list shows a part of the results.

Sequences of proteins named here, by UniProt entry; tags and fusion partners are left off. A change or cut given only in a name is not applied to a line headed by its entry.
UniProt Q8N4V1: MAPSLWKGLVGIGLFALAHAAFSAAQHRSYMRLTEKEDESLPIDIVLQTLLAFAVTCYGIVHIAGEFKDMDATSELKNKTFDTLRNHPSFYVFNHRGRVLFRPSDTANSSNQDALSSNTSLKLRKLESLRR
UniProt Q9NV56, whole entry, looked up: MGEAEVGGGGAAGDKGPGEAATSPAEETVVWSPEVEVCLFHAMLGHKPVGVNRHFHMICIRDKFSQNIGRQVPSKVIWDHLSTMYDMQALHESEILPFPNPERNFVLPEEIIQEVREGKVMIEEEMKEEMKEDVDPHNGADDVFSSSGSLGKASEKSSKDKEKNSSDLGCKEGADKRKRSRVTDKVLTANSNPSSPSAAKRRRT
UniProt Q9UH92: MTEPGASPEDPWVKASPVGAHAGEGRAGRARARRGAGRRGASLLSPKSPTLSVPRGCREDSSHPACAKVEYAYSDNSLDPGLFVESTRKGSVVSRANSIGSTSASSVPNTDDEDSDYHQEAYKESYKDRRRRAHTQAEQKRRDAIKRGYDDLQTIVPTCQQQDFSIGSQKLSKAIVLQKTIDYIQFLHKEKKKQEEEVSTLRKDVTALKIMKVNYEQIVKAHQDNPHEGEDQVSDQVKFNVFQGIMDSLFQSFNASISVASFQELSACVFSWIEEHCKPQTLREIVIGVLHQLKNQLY
UniProt P29372, whole entry, looked up: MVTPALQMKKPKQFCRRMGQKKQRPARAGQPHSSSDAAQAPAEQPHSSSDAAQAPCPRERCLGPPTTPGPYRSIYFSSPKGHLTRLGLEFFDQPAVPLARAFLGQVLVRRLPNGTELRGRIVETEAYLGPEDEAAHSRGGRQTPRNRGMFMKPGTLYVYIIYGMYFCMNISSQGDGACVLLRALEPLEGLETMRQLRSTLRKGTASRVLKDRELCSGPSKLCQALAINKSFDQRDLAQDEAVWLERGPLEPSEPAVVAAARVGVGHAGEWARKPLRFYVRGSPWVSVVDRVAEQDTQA
UniProt Q9UNW1: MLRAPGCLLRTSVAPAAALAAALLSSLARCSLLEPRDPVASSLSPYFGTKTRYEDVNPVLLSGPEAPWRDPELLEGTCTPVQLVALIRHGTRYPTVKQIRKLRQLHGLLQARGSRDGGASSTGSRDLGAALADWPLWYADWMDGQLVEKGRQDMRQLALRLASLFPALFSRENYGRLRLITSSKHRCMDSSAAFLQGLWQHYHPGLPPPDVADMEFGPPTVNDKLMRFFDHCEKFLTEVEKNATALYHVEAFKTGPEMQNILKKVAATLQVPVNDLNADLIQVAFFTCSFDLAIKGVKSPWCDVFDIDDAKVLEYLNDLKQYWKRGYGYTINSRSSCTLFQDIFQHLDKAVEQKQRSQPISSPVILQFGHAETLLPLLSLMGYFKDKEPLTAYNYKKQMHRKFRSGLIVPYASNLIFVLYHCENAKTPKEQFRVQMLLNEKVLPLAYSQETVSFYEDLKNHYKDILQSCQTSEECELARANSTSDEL
UniProt Q00013: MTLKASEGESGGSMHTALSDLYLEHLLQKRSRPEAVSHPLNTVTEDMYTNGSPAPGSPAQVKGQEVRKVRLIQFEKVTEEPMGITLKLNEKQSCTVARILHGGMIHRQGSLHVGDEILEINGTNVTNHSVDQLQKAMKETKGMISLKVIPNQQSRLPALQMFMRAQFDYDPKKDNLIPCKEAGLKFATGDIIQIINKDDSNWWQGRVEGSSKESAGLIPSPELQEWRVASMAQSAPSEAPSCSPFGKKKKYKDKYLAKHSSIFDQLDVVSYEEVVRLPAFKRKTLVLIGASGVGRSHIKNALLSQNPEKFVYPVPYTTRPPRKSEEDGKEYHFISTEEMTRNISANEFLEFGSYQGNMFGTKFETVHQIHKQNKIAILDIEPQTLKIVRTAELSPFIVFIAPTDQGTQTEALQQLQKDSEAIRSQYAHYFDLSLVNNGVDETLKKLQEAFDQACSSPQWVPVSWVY
UniProt Q6IN84: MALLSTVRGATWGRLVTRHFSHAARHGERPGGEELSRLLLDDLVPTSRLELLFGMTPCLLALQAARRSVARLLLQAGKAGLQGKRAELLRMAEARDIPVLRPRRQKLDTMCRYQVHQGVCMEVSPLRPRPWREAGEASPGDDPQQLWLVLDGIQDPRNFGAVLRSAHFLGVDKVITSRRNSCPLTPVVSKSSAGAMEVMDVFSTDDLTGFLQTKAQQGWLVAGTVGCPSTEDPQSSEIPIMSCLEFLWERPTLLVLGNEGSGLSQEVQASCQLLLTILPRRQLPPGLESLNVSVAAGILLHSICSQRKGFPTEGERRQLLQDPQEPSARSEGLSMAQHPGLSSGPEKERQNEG
UniProt Q9Y3A3: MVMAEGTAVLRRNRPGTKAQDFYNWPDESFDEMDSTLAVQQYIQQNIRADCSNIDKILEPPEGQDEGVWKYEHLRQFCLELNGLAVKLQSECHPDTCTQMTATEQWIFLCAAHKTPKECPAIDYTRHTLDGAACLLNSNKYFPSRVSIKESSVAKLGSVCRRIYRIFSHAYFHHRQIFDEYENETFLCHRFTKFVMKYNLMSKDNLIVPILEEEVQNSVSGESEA
UniProt Q9BPX6: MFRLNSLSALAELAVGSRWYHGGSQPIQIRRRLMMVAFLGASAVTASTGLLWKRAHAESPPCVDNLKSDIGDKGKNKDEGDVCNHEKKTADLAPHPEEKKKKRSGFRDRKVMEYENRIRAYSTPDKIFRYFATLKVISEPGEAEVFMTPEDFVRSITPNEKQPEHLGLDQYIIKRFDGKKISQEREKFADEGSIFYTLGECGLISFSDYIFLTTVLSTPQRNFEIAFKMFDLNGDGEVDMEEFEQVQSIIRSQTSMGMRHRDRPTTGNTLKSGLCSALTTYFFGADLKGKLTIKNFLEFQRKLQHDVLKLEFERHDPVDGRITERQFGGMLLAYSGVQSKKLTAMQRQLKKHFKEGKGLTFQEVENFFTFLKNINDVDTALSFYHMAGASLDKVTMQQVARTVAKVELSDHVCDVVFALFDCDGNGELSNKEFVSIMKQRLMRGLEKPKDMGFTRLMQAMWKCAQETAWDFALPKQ
UniProt P46013: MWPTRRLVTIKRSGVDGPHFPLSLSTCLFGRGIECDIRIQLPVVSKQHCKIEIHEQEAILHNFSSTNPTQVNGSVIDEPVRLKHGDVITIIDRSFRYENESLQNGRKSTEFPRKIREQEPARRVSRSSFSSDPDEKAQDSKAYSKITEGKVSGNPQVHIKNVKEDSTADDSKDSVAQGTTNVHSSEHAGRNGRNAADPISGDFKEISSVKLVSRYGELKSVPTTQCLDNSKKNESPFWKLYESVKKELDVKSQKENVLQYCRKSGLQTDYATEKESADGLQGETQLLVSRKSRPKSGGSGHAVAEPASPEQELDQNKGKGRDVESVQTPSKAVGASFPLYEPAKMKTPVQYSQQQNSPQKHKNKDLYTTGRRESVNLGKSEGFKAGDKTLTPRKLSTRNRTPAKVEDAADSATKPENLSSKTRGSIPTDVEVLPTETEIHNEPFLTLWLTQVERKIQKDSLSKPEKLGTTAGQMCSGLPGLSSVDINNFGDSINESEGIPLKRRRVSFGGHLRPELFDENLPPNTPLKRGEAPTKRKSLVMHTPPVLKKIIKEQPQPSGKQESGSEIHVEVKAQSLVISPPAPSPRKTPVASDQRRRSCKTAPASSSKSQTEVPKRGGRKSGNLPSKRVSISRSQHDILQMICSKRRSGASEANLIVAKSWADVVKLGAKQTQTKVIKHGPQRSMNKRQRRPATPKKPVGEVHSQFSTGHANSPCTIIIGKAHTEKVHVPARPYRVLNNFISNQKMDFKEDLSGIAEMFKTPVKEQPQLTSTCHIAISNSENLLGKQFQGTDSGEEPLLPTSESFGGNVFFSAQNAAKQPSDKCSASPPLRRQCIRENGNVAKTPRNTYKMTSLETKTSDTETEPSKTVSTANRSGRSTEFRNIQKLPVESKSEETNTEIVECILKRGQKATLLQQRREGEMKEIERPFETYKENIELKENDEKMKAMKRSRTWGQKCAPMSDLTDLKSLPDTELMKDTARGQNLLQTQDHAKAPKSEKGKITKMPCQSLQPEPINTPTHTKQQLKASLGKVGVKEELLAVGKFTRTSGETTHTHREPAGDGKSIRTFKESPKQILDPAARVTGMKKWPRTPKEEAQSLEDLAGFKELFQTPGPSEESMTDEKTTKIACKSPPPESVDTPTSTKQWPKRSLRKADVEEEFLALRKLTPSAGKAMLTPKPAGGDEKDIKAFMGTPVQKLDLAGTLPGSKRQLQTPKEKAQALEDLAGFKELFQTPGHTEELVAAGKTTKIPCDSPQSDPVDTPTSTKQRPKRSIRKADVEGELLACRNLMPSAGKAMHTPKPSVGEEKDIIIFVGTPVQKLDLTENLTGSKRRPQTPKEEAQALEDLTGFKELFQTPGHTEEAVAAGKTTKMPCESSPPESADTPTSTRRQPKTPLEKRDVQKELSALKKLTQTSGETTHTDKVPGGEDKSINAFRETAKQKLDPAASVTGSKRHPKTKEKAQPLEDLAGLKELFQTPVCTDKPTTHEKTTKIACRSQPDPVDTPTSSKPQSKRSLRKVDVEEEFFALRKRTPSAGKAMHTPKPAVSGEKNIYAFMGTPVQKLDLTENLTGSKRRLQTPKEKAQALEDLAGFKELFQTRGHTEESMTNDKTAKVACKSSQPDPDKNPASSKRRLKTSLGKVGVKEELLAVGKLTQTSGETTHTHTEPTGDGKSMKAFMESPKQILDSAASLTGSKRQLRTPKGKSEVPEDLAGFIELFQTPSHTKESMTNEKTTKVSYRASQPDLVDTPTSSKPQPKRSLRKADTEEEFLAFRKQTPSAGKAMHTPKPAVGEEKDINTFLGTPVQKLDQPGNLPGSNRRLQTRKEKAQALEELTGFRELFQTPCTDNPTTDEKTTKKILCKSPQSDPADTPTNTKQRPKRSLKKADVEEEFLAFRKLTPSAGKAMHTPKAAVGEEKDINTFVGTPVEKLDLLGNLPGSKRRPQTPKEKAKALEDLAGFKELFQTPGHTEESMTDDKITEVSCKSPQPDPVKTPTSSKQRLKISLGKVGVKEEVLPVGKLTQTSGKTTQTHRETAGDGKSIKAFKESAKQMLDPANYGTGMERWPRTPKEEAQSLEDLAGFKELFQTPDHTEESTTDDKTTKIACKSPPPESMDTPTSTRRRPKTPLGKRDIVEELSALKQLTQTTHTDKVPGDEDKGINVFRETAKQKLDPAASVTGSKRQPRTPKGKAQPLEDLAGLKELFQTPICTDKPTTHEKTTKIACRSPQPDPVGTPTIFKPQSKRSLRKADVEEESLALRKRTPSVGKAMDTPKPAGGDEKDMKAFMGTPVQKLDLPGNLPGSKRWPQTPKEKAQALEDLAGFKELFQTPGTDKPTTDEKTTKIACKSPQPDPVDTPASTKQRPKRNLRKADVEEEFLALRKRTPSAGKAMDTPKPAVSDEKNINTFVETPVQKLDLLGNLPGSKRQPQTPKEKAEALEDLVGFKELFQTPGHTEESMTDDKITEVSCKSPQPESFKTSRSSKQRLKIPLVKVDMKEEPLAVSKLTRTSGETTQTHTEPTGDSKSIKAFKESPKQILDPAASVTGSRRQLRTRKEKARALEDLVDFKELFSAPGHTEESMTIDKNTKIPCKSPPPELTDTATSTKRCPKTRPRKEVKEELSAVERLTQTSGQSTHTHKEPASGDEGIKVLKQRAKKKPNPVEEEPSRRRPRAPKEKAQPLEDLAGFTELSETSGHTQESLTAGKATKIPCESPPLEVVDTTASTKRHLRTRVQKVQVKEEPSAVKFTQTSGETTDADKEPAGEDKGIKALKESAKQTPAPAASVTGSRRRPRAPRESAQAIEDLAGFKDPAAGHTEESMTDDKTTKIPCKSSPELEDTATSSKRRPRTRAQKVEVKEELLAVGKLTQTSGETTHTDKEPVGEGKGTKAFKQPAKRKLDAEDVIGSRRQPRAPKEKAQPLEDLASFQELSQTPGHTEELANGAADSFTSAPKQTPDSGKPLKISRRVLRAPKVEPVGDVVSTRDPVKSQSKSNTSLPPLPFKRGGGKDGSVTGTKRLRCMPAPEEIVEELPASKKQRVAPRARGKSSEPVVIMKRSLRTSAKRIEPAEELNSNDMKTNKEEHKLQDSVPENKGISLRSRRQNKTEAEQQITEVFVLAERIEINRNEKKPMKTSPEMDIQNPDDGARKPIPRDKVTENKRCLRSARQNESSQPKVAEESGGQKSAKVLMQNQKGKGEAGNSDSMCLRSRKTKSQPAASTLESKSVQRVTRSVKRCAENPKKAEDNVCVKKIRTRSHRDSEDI
UniProt Q8WV92, whole entry, looked up: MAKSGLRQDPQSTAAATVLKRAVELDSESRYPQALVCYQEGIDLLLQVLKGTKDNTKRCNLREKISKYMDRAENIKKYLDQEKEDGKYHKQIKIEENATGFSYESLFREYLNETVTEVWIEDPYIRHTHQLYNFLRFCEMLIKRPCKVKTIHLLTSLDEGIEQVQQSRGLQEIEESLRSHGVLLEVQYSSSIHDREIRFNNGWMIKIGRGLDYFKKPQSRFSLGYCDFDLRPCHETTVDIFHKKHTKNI

Tests used:
Experiment in all cases: log2 fold change, soluble protein after heating vs DMSO (PISA); higher = thermal stabilisation; K562 cells, 10 uM, 30 min; active = over 0.2 and 3.5 SD of the protein, either way, in both replicates (recomputed)
[1] = compound: COC1=CC=C(C=C1)CN2C=CC3=C2C=C(C=C3)C(=O)NO
Outline: (§1)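 K562 cells at 2×10^6 cells/mL were treated with 10 μM compound for 30 min. Aliquots were heated for 3 min across 48°C-58°C, pooled, and extracted in PBS with 0.5% NP-40 at 4°C; soluble protein was the supernatant after 21,000xg for 90 min. Soluble protein was quantified by TMTpro 16plex LC-MS/MS with channel sums equalised, and reported as log2 fold change in thermal stability against DMSO controls, with values from duplicates.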

filanesib = compound: CON(C)C(=O)N1N=C(c2cc(F)ccc2F)S[C@@]1(CCCN)c1ccccc1 [filanesib]
Outline: as §1

zotarolimus = compound: CO[C@H]1C[C@@H]2CC[C@@H](C)[C@@](O)(O2)C(=O)C(=O)N2CCCC[C@H]2C(=O)O[C@H]([C@H](C)C[C@@H]2CC[C@H](n3cnnn3)[C@H](OC)C2)CC(=O)[C@H](C)/C=C(\C)[C@@H](O)[C@@H](OC)C(=O)[C@H](C)C[C@H](C)/C=C/C=C/C=C/1C [zotarolimus]
Outline: as §1

idasanutlin = compound: COc1cc(C(=O)O)ccc1NC(=O)[C@@H]1N[C@@H](CC(C)(C)C)[C@](C#N)(c2ccc(Cl)cc2F)[C@H]1c1cccc(Cl)c1F [idasanutlin]
Outline: as §1

alisertib = compound: COc1cc(Nc2ncc3c(n2)-c2ccc(Cl)cc2C(c2c(F)cccc2OC)=NC3)ccc1C(=O)O [alisertib]
Outline: as §1

[2] = compound: COc1cc2nc(-c3cc(F)ccc3O)nc(N[C@@H]3CNC[C@H]3C(C)(C)O)c2cc1OC
Outline: as §1

gefitinib = compound: COc1cc2ncnc(Nc3ccc(F)c(Cl)c3)c2cc1OCCCN1CCOCC1 [gefitinib]
Outline: as §1

[3] = compound: COc1cccc2cc(-c3nc([C@H]4CC[C@H](C(=O)O)CC4)n4ncnc(N)c34)[nH]c12
Outline: as §1

lapatinib = compound: CS(=O)(=O)CCNCc1ccc(-c2ccc3ncnc(Nc4ccc(OCc5cccc(F)c5)c(Cl)c4)c3c2)o1 [lapatinib]
Outline: as §1

pictilisib = compound: CS(=O)(=O)N1CCN(Cc2cc3nc(-c4cccc5[nH]ncc45)nc(N4CCOCC4)c3s2)CC1 [pictilisib]
Outline: as §1

Measured: log2 fold change

MRPL48 (UniProt Q96GC5)
inactive: [1] -0.024 | filanesib 0.22 | zotarolimus 0.017 | idasanutlin -0.135 | alisertib -0.044 | [2] 0.006 | gefitinib 0.036 | [3] -0.043 | lapatinib 0.147 | pictilisib -0.038

MRPL38 (UniProt Q96DV4)
inactive: [1] -0.097 | filanesib 0.205 | zotarolimus 0.101 | idasanutlin -0.008 | alisertib -0.085 | [2] 0.026 | gefitinib -0.075 | [3] -0.095 | lapatinib 0.137 | pictilisib -0.086

MMGT1 isoform 2 (UniProt Q8N4V1)
inactive: [1] 0.022 | filanesib -0.072 | zotarolimus 0.009 | idasanutlin -0.039 | alisertib 0.009 | [2] -0.073 | gefitinib -0.022 | [3] 0.074 | lapatinib 0.001 | pictilisib 0.015

MRGBP (UniProt Q9NV56)
inactive: [1] 0.012 | filanesib -0.009 | zotarolimus 0.065 | idasanutlin 0.026 | alisertib -0.148 | [2] -0.064 | gefitinib 0.042 | [3] 0.033 | lapatinib 0.057 | pictilisib -0.075

MRPL24 (UniProt Q96A35)
inactive: [1] -0.016 | filanesib 0.292 | zotarolimus 0.102 | idasanutlin -0.077 | alisertib -0.028 | [2] 0.033 | gefitinib -0.159 | [3] -0.161 | lapatinib 0.144 | pictilisib -0.156

MRPL39 (UniProt Q9NYK5)
inactive: [1] -0.028 | filanesib 0.094 | zotarolimus 0.138 | idasanutlin -0.035 | alisertib -0.003 | [2] -0.132 | gefitinib -0.008 | [3] -0.039 | lapatinib 0.068 | pictilisib -0.067

MLX (UniProt Q9UH92)
inactive: [1] -0.054 | filanesib 0.027 | zotarolimus -0.009 | idasanutlin -0.071 | alisertib -0.014 | [2] 0.025 | gefitinib 0.022 | [3] 0.057 | lapatinib -0.099 | pictilisib 0.05

MICAL1 isoform 4 (UniProt Q8TDZ2)
inactive: [1] -0.077 | filanesib -0.158 | zotarolimus 0.06 | idasanutlin -0.139 | alisertib -0.229 | [2] -0.046 | gefitinib 0.061 | [3] -0.128 | lapatinib 0.128

MPG (UniProt P29372)
inactive: [1] 0.156 | filanesib 0.039 | zotarolimus -0.047 | idasanutlin 0.041 | alisertib -0.078 | [2] -0.039 | gefitinib 0.004 | [3] -0.041 | lapatinib 0.037 | pictilisib -0.02

MPHOSPH10 (UniProt O00566)
inactive: [1] -0.139 | zotarolimus 0.053 | idasanutlin 0.271 | alisertib -0.061 | [2] -0.166 | gefitinib 0.026 | [3] -0.031 | lapatinib 0.174 | pictilisib -0.105
active: filanesib 0.561

MNAT1 (UniProt P51948)
inactive: [1] -0.025 | filanesib 0.073 | zotarolimus 0.011 | idasanutlin 0.021 | alisertib -0.047 | [2] -0.04 | gefitinib -0.039 | [3] 0.036 | lapatinib 0.009 | pictilisib -0.016

MRPL16 (UniProt Q9NX20)
inactive: [1] 0.053 | filanesib 0.228 | zotarolimus 0.073 | idasanutlin -0.061 | alisertib -0.059 | [2] 0.063 | gefitinib -0.092 | [3] -0.1 | lapatinib 0.249 | pictilisib -0.165

MLXIP (UniProt Q9HAP2)
inactive: [1] 0.124 | filanesib -0.018 | zotarolimus 0.127 | idasanutlin -0.013 | alisertib -0.019 | [2] -0.075 | gefitinib -0.021 | [3] -0.073 | lapatinib 0.153 | pictilisib 0.1

MPDU1 (UniProt O75352)
inactive: [1] 0.012 | filanesib -0.013 | zotarolimus -0.105 | idasanutlin 0.005 | alisertib -0.075 | [2] -0.105 | gefitinib 0.111 | [3] 0.077 | lapatinib 0 | pictilisib 0.076

MINPP1 (UniProt Q9UNW1)
inactive: [1] -0.049 | filanesib -0.001 | zotarolimus -0.043 | idasanutlin -0.001 | alisertib -0.106 | [2] -0.056 | gefitinib -0.024 | [3] 0.004 | lapatinib 0.072 | pictilisib -0.082

MRPL3 (UniProt P09001)
inactive: [1] -0.034 | filanesib 0.222 | zotarolimus 0.087 | idasanutlin -0.152 | alisertib 0.012 | [2] -0.02 | gefitinib -0.066 | [3] -0.02 | lapatinib 0.139 | pictilisib -0.14

MOCOS (UniProt Q96EN8)
inactive: [1] -0.177 | filanesib 0.01 | zotarolimus -0.06 | idasanutlin -0.151 | alisertib 0.011 | [2] 0.009 | gefitinib 0.009 | [3] 0.116 | lapatinib 0.021 | pictilisib 0.016

MPP1 (UniProt Q00013)
inactive: [1] 0.024 | filanesib -0.041 | zotarolimus -0.027 | idasanutlin 0.069 | alisertib 0.032 | [2] 0.016 | gefitinib 0.114 | [3] -0.074 | lapatinib 0.032 | pictilisib 0.096

MRM1 (UniProt Q6IN84)
inactive: [1] -0.082 | filanesib 0.174 | zotarolimus -0.056 | idasanutlin 0.089 | alisertib -0.141 | [2] -0.096 | gefitinib -0.095 | [3] -0.032 | lapatinib 0.081

MRPL54 (UniProt Q6P161)
inactive: [1] -0.065 | filanesib 0.024 | zotarolimus -0.092 | idasanutlin 0.108 | alisertib -0.034 | [2] -0.219 | gefitinib -0.052 | [3] -0.003 | lapatinib 0.175 | pictilisib -0.045

MRPL34 (UniProt Q9BQ48)
inactive: [1] -0.074 | filanesib 0.081 | zotarolimus 0.072 | idasanutlin 0.029 | alisertib -0.089 | [2] -0.045 | gefitinib -0.105 | [3] -0.164 | lapatinib 0.028 | pictilisib -0.102

MOB4 (UniProt Q9Y3A3)
inactive: [1] 0.023 | filanesib 0.001 | zotarolimus 0.009 | idasanutlin -0.008 | alisertib -0.066 | [2] 0.014 | gefitinib 0.015 | [3] 0.022 | lapatinib 0.072 | pictilisib -0.003

MICU1 isoform 3 (UniProt Q9BPX6)
inactive: [1] -0.047 | filanesib -0.031 | zotarolimus -0.034 | idasanutlin 0.05 | alisertib -0.011 | gefitinib 0.02 | [3] -0.056 | lapatinib 0.019 | pictilisib -0.038
active: [2] -0.278

MORC3 (UniProt Q14149)
inactive: [1] 0.013 | filanesib -0.04 | zotarolimus 0.015 | idasanutlin 0.021 | alisertib 0.039 | [2] 0.146 | gefitinib -0.082 | [3] 0 | lapatinib -0.058 | pictilisib 0.196

MRPL23 (UniProt Q16540)
inactive: [1] -0.013 | filanesib 0.193 | zotarolimus 0.095 | idasanutlin -0.055 | alisertib -0.104 | [2] 0.063 | gefitinib -0.035 | [3] -0.063 | lapatinib 0.154 | pictilisib -0.186

MOSPD2 (UniProt Q8NHP6)
inactive: [1] 0.016 | filanesib -0.02 | zotarolimus -0.001 | idasanutlin 0.018 | alisertib -0.135 | [2] -0.003 | gefitinib 0.05 | [3] 0.03 | lapatinib 0.07 | pictilisib 0.055

MRPL33 (UniProt O75394)
inactive: [1] 0.073 | filanesib 0.008 | zotarolimus -0.021 | idasanutlin -0.035 | alisertib -0.066 | [2] -0.024 | gefitinib -0.018 | [3] -0.138 | lapatinib 0.163

MKI67 (UniProt P46013)
inactive: [1] -0.06 | filanesib 0.165 | zotarolimus -0.022 | idasanutlin 0.205 | alisertib -0.027 | [2] -0.117 | gefitinib 0.073 | [3] 0.02 | lapatinib 0.044 | pictilisib -0.141

MLST8 (UniProt Q9BVC4)
inactive: [1] 0.1 | filanesib -0.206 | zotarolimus -0.12 | idasanutlin -0.154 | alisertib 0.019 | [2] 0.055 | gefitinib -0.041 | [3] -0.081 | lapatinib -0.039

MITD1 (UniProt Q8WV92)
inactive: [1] 0.059 | filanesib 0.004 | zotarolimus -0.068 | idasanutlin -0.058 | alisertib 0.018 | [2] -0.013 | gefitinib -0.018 | [3] 0.063 | lapatinib 0.004 | pictilisib -0.121

Retrieved one by one from the entries so far (two):
MKI67 (UniProt P46013)
inactive: [1] -0.06 | filanesib 0.165 | zotarolimus -0.022 | idasanutlin 0.205 | alisertib -0.027 | [2] -0.117 | gefitinib 0.073 | [3] 0.02 | lapatinib 0.044 | pictilisib -0.141

MITD1 (UniProt Q8WV92)
inactive: [1] 0.059 | filanesib 0.004 | zotarolimus -0.068 | idasanutlin -0.058 | alisertib 0.018 | [2] -0.013 | gefitinib -0.018 | [3] 0.063 | lapatinib 0.004 | pictilisib -0.121
